Results: paper PMC2567031
No constants are given. Whether binding was seen depends on the method and setting. Binding seen in cells or lysates may run through a third protein. A yes stands for co-enrichment or nearness to the bait. Other partners may have been found.

Chains of the proteins cited; added tags and fusions are not shown. Lines headed by an entry give the natural chain unless they say otherwise; changes in a name come on top.
UniProt P00441: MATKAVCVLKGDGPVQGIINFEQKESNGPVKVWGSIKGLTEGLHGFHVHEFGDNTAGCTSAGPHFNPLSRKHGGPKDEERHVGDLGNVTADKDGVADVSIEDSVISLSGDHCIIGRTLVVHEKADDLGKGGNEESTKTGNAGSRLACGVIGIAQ

What was measured:
[1] = molecular target: SOD1^Leu126delTT with a FLAG sequence at C terminal (DF mutant SOD1) (human) (UniProt P00441); test: affinity purification with mass spectrometry; spinal cord of mice aged 145 days (DF symptomatic; WF); extract in 0.15 M NaCl, 10 mM Tris-HCl, 1% Triton X-100, pH 7.4; anti-FLAG M2 affinity gel, elution with 3xFLAG peptide, trypsin digest, LC-MS/MS
[2] = molecular target: SOD1^Leu126delTT with a FLAG sequence at C terminal (DF mutant SOD1) (human) (UniProt P00441); test: affinity purification with mass spectrometry; cerebellum of DF mice aged 145 days; same lysis buffer; anti-FLAG M2 affinity gel, elution with 3xFLAG peptide, LC-MS/MS
[3] = molecular target: SOD1^Leu126delTT with a FLAG sequence at C terminal (DF mutant SOD1) (human) (UniProt P00441); test: affinity purification with mass spectrometry; spinal cord of presymptomatic DF mice aged 35 days; same lysis buffer; anti-FLAG M2 affinity gel, elution with 3xFLAG peptide, LC-MS/MS

B1: brain glycogen phosphorylase (protein, UniProt Q8CI94 1-843)
chain: MAKPLTDSERQKQISVRGIAGLGDVAEVRKSFNRHLHFTLVKDRNVATPRDYFFALAHTVRDHLVGRWIRTQQHYYERDPKRIYYLSLEFYMGRTLQNTMVNLGLQTACDEATYQLGLDLEELEEIEEDAGLGNGGLGRLAACFLDSMATLGLAAYGYGIRYEFGIFNQKIVNGWQVEEADDWLRYGNPWEKARPEYMLPVHFYGRVEHTPDGVLWLDTQVVLAMPYDTPVPGYKNNTVNTMRLWSAKAPNDFKLKDFNVGDYIEAVLDRNLAENISRVLYPNDNFFEGKELRLKQEYFVVAATLQDIIRRFKSSRFGCRDPVRTCFETFPDKVAIQLNDTHPALSIPELMRILVDVEKVDWDKAWEITKKTCAYTNHTVLPEALERWPVSMFEKLLPRHLEIIYAINQRHLDHVAALFPGDVDRLRRMSVIEEGDCKRINMAHLCVIGSHAVNGVARIHSEIVKQSVFKDFYELEPEKFQNKTNGITPRRWLLLCNPGLAEIIVERIGEGFLTDLSQLKKLLSLVDDEAFIRDVAKVKQENKLKFSAQLEKEYKVKINPASMFDVHVKRIHEYKRQLLNCLHIITLYNRIKKDPAKAFVPRTVMIGGKAAPGYHMAKMIIKLVTSIGDVVNHDPVVGDRLRVIFLENYRVSLAEKVIPAADLSQQISTAGTEASGTGNMKFMLNGALTIGTMDGANVEMAEEAGEENLFIFGMRVEDVEALDQKGYNAREFYERLPELRQAVDQISSGFFSPKDPDCFKDVVNMLMYHDRFKVFADYEAYIQCQAQVDRLYRNSKEWTKKVIRNIACSGKFSSDRTITEYAREIWGVEPSDLQIPPPNLPKD
B1 was tested, and the binding [1] was “binds”.

B2: phosphofructokinase 1 (protein, UniProt P47857 1-780)
chain: MTHEEHHAAKTLGIGKAIAVLTSGGDAQGMNAAVRAVVRVGIFTGARVFFVHEGYQGLVDGGEHIREATWESVSMMLQLGGTVIGSARCKDFREREGRLRAAHNLVKRGITNLCVIGGDGSLTGADTFRSEWSDLLNDLQKDGKITAEEATKSSYLNIVGLVGSIDNDFCGTDMTIGTDSALHRIVEIVDAITTTAQSHQRTFVLEVMGRHCGYLALVTSLSCGADWVFIPECPPDDDWEEHLCRRLSETRTRGSRLNIIIVAEGAIDKNGKPITSEDIKNLVVKRLGYDTRVTVLGHVQRGGTPSAFDRILGSRMGVEAVMALLEGTPDTPACVVSLSGNQAVRLPLMECVQVTKDVTKAMDEKRFDEAIKLRGRSFMNNWEVYKLLAHVRPPVSKGGLHTVAVMNVGAPAAGMNAAVRSTVRIGLIQGNRVLVVHDGFEGLAKGQIEEAGWSYVGGWTGQGGSKLGTKRTLPKKNLEQISANITKFNIQGLVIIGGFEAYTGGLELMEGRKQFDELCIPFVVIPATVSNNVPGSDFSIGADTALNTICTTCDRIKQSAAGTKRRVFIIETMGGYCGYLATMAGLAAGADAAYIFEEPFTIRDLQVNVEHLVQKMKTTVKRGLVLRNEKCNENYTTDFIFNLYSEEGKGIFDSRKNVLGHMQQGGSPTPFDRNFATKMGAKAMNWMSGKIKESYRNGRIFANTPDSGCVLGMRKRALVFQPVTELKDQTDFEHRIPKEQWWLKLRPILKILAKYEIDLDTSDHAHLEHISRKRSGEAAV
In the case of B2, the binding [1] is reported as “binds”.

B3: aconitase 2 (protein, UniProt Q99KI0 28-780)
chain: QRAKVAMSHFEPSEYIRYDLLEKNINIVRKRLNRPLTLSEKIVYGHLDDPANQEIERGKTYLRLRPDRVAMQDATAQMAMLQFISSGLPKVAVPSTIHCDHLIEAQVGGEKDLRRAKDINQEVYNFLATAGAKYGVGFWRPGSGIIHQIILENYAYPGVLLIGTDSHTPNGGGLGGICIGVGGADAVDVMAGIPWELKCPKVIGVKLTGSLSGWTSPKDVILKVAGILTVKGGTGAIVEYHGPGVDSISCTGMATICNMGAEIGATTSVFPYNHRMKKYLSKTGRTDIANLAEEFKDHLVPDPGCQYDQVIEINLNELKPHINGPFTPDLAHPVADVGTVAEKEGWPLDIRVGLIGSCTNSSYEDMGRSAAVAKQALAHGLKCKSQFTITPGSEQIRATIERDGYAQILRDVGGIVLANACGPCIGQWDRKDIKKGEKNTIVTSYNRNFTGRNDANPETHAFVTSPEIVTALAIAGTLKFNPETDFLTGKDGKKFKLEAPDADELPRSDFDPGQDTYQHPPKDSSGQRVDVSPTSQRLQLLEPFDKWDGKDLEDLQILIKVKGKCTTDHISAAGPWLKFRGHLDNISNNLLIGAINIENGKANSVRNAVTQEFGPVPDTARYYKKHGIRWVVIGDENYGEGSSREHAALEPRHLGGRAIITKSFARIHETNLKKQGLLPLTFADPSDYNKIHPVDKLTIQGLKDFAPGKPLKCVIKHPNGTQETILLNHTFNETQIEWFRAGSALNRMKELQQ
In the case of B3, the binding [2] is reported as “binds” and the binding [1] is reported as “binds”.

B4: 2′,3′-cyclic-nucleotide 3′-phosphodiesterase I (protein, UniProt P16330 1-420)
chain: MNTSFTRKSHTFLPKLFFRKMSSSGAKEKPELQFPFLQDEDTVATLHECKTLFILRGLPGSGKSTLARLILEKYHDGTKMVSADAYKIIPGSRADFSEAYKRLDEDLAGYCRRDIRVLVLDDTNHERERLDQLFEMADQYQYQVVLVEPKTAWRLDCAQLKEKNQWQLSADDLKKLKPGLEKDFLPLYFGWFLTKKSSETLRKAGQVFLEELGNHKAFKKELRHFISGDEPKEKLELVSYFGKRPPGVLHCTTKFCDYGKAAGAEEYAQQEVVKRSYGKAFKLSISALFVTPKTAGAQVVLTDQELQLWPSDLDKPSASEGLPPGSRAHVTLGCAADVQPVQTGLDLLDILQQVKGGSQGEAVGELPRGKLYSLGKGRWMLSLTKKMEVKAIFTGYYGKGKPVPIHGSRKGGAMQICTII
In the case of B4, the binding [3] is reported as “binds” and the binding [1] is reported as “binds”.

B5: latexin (protein, UniProt P70202 1-222)
chain: MEIPPTHYAASRAASVAENCINYQQGTPHKLFLVQTVQQASKEDIPGRGHKYHLKFSVEEIIQKQVTVNCTAEVLYPQMGQGSAPEVNFTFEGEIGKNPDEEDNTFYQSLMSLKRPLEAQDIPDNFGNVSPQMKPVQHLAWVACGYVMWQNSTEDTWYKMLKIQTVKQVQRNDDFIELDYTILLHDIASQEIIPWQMQVLWHPQYGTKVKHNSRLPKEGQAE
B5 was tested, and the binding [1] was “binds”.

B6: solute carrier family 25, member 4 (protein, UniProt P48962 1-298)
chain: MGDQALSFLKDFLAGGIAAAVSKTAVAPIERVKLLLQVQHASKQISAEKQYKGIIDCVVRIPKEQGFLSFWRGNLANVIRYFPTQALNFAFKDKYKQIFLGGVDRHKQFWRYFAGNLASGGAAGATSLCFVYPLDFARTRLAADVGKGSSQREFNGLGDCLTKIFKSDGLKGLYQGFSVSVQGIIIYRAAYFGVYDTAKGMLPDPKNVHIIVSWMIAQSVTAVAGLVSYPFDTVRRRMMMQSGRKGADIMYTGTLDCWRKIAKDEGANAFFKGAWSNVLRGMGGAFVLVLYDEIKKYV
In the case of B6, the binding [1] is reported as “binds”.

B7: solute carrier family 25, member 5 (protein, UniProt P51881 1-298)
chain: MTDAAVSFAKDFLAGGVAAAISKTAVAPIERVKLLLQVQHASKQITADKQYKGIIDCVVRIPKEQGVLSFWRGNLANVIRYFPTQALNFAFKDKYKQIFLGGVDKRTQFWRYFAGNLASGGAAGATSLCFVYPLDFARTRLAADVGKAGAEREFKGLGDCLVKIYKSDGIKGLYQGFNVSVQGIIIYRAAYFGIYDTAKGMLPDPKNTHIFISWMIAQSVTAVAGLTSYPFDTVRRRMMMQSGRKGTDIMYTGTLDCWRKIARDEGSKAFFKGAWSNVLRGMGGAFVLVLYDEIKKYT
In the case of B7, the binding [1] is reported as “binds”.

B8: glutamate oxaloacetate transaminase 2 (protein, UniProt P05202 30-430)
chain: SSWWTHVEMGPPDPILGVTEAFKRDTNSKKMNLGVGAYRDDNGKPYVLPSVRKAEAQIAAKNLDKEYLPIGGLAEFCKASAELALGENNEVLKSGRFVTVQTISGTGALRVGASFLQRFFKFSRDVFLPKPSWGNHTPIFRDAGMQLQGYRYYDPKTCGFDFSGALEDISKIPEQSVLLLHACAHNPTGVDPRPEQWKEIASVVKKKNLFAFFDMAYQGFASGDGDKDAWAVRHFIEQGINVCLCQSYAKNMGLYGERVGAFTVVCKDAEEAKRVESQLKILIRPLYSNPPLNGARIAATILTSPDLRKQWLQEVKGMADRIISMRTQLVSNLKKEGSSHNWQHITDQIGMFCFTGLKPEQVERLTKEFSVYMTKDGRISVAGVTSGNVGYLAHAIHQVTK
With B8 the binding [1] was “binds”.

B9: protein phosphatase 1B (protein, UniProt P36993 1-390)
chain: MGAFLDKPKTEKHNAHGAGNGLRYGLSSMQGWRVEMEDAHTAVVGIPHGLDNWSFFAVYDGHAGSRVANYCSTHLLEHITTNEDFRAADKSGSALEPSVESVKTGIRTGFLKIDEYMRNFSDLRNGMDRSGSTAVGVMVSPTHMYFINCGDSRAVLCRNGQVCFSTQDHKPCNPVEKERIQNAGGSVMIQRVNGSLAVSRALGDYDYKCVDGKGPTEQLVSPEPEVYEIVRAEEDEFVVLACDGIWDVMSNEELCEFVKSRLEVSDDLENVCNWVVDTCLHKGSRDNMSVVLVCFSNAPKVSEEAVKRDSELDKHLESRVEEIMQKSGEEGMPDLAHVMRILSAENIPNLPPGGGLAGKRHVIEAVYSRLNPHKDNDGGAGDLEDSLVAL
For B9, the binding [2] was “binds”.
